Data as given in PubChem BioAssay AID504793 (Drosophila RNAi Screening Center, 2011).

Test: 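Whole-genome screen for parts of the DNA damage checkpoint at G2/M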 (primary screen)
Cells: Drosophila S2R+ cells
Reagent: long dsRNA against Drosophila genes, about 0.25 µg dsRNA per well
Timing: 4 days of dsRNA, then 4 hours of drug before read-out
Conditions: doxorubicin 0.5 µM for 4 hours to cause double-strand breaks, in cells also given a low, harmless dose of dsRNA against nbs to sensitise the assay
Read-out: 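Per-well count of mitotic cells stained for phospho-histone H3 after doxorubicin exposure, used as mitotic index; counts are raw and not normalised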
Direction: mitotic cells: higher = more cells in mitosis, weaker G2 arrest
Hit rule: 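Genes are called active only when high mitotic counts were reproduced with independent dsRNAs and mitosis was checked for delay without damage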
Meaning of the calls: active = confirmed in follow-up tests; inactive = not confirmed
The screen tested about 23,000 reagents; this is an unselected part of those with a known target gene and a result. Over the whole deposit, 62 (0.27%) were called active. 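Calls come from follow-up tests whose scores are not deposited, so confirmed genes may have low counts here; counts are not normalised per plate.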 Raw values vary from plate to plate and are shown uncorrected. The numbers tell different reagents against one gene apart.

CG14074 #1 scored mitotic cells, replicate 1 = 4; inactive.
Against CG14074 #2, the entry reads mitotic cells, replicate 1 = 9; inactive.
Knock-down of Glt (Glutactin) #1 came out at: mitotic cells, replicate 1 = 5; inactive.
With knock-down of Glt (Glutactin) #2, the screen gave mitotic cells, replicate 1 = 9; inactive.
CG14439 showed mitotic cells, replicate 1 = 12; inactive.

2 entries from above, arranged by “mitotic cells, replicate 1”, low to high.
Glt (Glutactin) #2 → mitotic cells, replicate 1 = 9; call = inactive
CG14439 → mitotic cells, replicate 1 = 12; call = inactive

Next reagents:
With knock-down of ear (ENL/AF9-related) #1, the screen gave mitotic cells, replicate 1 = 4; inactive.
ear (ENL/AF9-related) #2 showed mitotic cells, replicate 1 = 8; inactive.
Against SPoCk (Secretory Pathway Calcium atpase) #1 the deposit lists mitotic cells, replicate 1 = 9; inactive.
Depletion of SPoCk (Secretory Pathway Calcium atpase) #2 came out at: mitotic cells, replicate 1 = 3; inactive.
Depletion of SPoCk (Secretory Pathway Calcium atpase) #3 resulted in: mitotic cells, replicate 1 = 1; inactive.
SPoCk (Secretory Pathway Calcium atpase) #4 showed mitotic cells, replicate 1 = 7; inactive.
Against SPoCk (Secretory Pathway Calcium atpase) #5 the deposit lists mitotic cells, replicate 1 = 11; inactive.
For CG14568, the values are mitotic cells, replicate 1 = 1; inactive.
After knock-down of SAK (Sak kinase) #1, the screen gave mitotic cells, replicate 1 = 2; inactive.
Against SAK (Sak kinase) #2, the values are mitotic cells, replicate 1 = 7; inactive.
After knock-down of SAK (Sak kinase) #3, the screen gave mitotic cells, replicate 1 = 4; inactive.
